At least one structure is not confirmed: it was looked up by name or label, or the drawing left a doubt.
Assay: Accelerated stability of flavor components in peroxide mouthrinse, measured by gas chromatography
Assay type: physicochemical
Details: 40° C., 75% RH, component at 0.005%
Protocol: The stability of the present compositions was assessed by measuring any changes in levels of peroxide, active component (cetylpyridinium chloride) and flavor components under storage conditions at 40° C. and 75% Relative Humidity.
A flavor mix consisting of Ethylbutyrate, Limonene, Decanal, Methylsalicylate, Carvone and Anethole (each flavor component at 0.005%) was added to the compositions. The resulting mouthrinse formulations were packaged in 500 ml PET bottles and placed on accelerated stability test chamber at 40° C. and 75% Relative Humidity conditions. The amount of peroxide in the samples was measured using the method described above and no significant changes were detected. However, radical activity was greater in the untreated sample vs. the treated sample as evidenced in greater degradation of flavor components in the untreated sample. The amount of each flavor component at time 0, 17 and 31 days was evaluated by gas chromatography (GC). Results are summarized in Table 2 below showing % reduction of each component and total flavor at days 17 and 31 from day 0. […] The treatment also […].
Formulation IA with Glass H polyphosphate as radical scavenger was compared with a sample of formulation IB (no radical scavenger) that was not treated to remove metals. […] The resulting mouthrinse formulations were packaged in 500 ml PET bottles and placed on accelerated stability test chamber at 40° C. and 75% Relative Humidity. The amount of each flavor component at time 0, 17 and 31 days were measured by gas chromatography (GC).

[1] = Formula IA with Glass H polyphosphate radical scavenger
[2] = Formula IB, no radical scavenger, not treated to remove metals
[3] = formulation IB treated with polymer supported chelant, vs day 0
[4] = formulation IB untreated, vs day 0

COC(=O)c1ccccc1O [Methylsalicylate]
25%: % Reduction at day 17, Formula IA [1] | % Reduction at day 31, Formula IA [1]
0%: % Reduction at day 17, Formula IB [2] | % Reduction at day 31, Formula IB [2] | % Reduction at day 17, Treated [3] | % Reduction at day 31, Treated [3] | % Reduction at day 17, Untreated [4] | % Reduction at day 31, Untreated [4]

— patent US20080175801A1, “Stable peroxide containing personal care compositions” (The Procter & Gamble Company, priority 2007, published 2008)
